Data from PubChem BioAssay AID540303 (National Center for Advancing Translational Sciences (NCATS), 2011).
Screen size: about 330,000 compounds; about 1,000 (0.3%) were called active. The shares of active, inactive and inconclusive entries below differ from those in the screen. The call rests on the fitted dose curve; in most records, active means well fitted inhibition curve with a large enough effect; inconclusive means small, poorly fitted or top-dose-only effect; inactive means no such curve, though single readings can be large or run the other way; tested in mouse RAW 264.7 cells. Potencies of inconclusive entries are doubtful fits and often do not repeat.

Assay: qHTS for Inhibitors of Cell Surface uPA Generation; further: nearly all actives have a fitted effect of over 55% in size
Details: cell surface uPA generation assay; series mostly up to 38.3 µM
Summary of the method: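 Using RAW 264.7 macrophages, the screen measures whether compounds keep cellular ATP up by preventing uPA-driven LF translocation. Treatment lasted 24 h at 37 C, with a final top concentration of 38.3 uM, and luminescence was the readout.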
Potency means the concentration at half of the fitted maximal effect.

Compound	Potency
CCOC(=O)Cc1cc(=O)n2[nH]cc(-c3cccc(Br)c3)c2n1	inactive
CCn1c(SCC(=O)Nc2ccc(OC)c(OC)c2)nnc1-c1cccs1	inactive
Cc1ccc(C)c(OCc2cc(C(=O)N3CCc4sccc4C3)no2)c1	inactive
COc1ccc(Br)cc1S(=O)(=O)NCCc1cccs1	inactive
Cc1ccccc1C(=O)Nc1nnc(SCC(=O)NCc2ccco2)s1	inconclusive: 25.1 µM [inhibitor, partial curve, poor fit]
COc1ccc(-n2ncc3c(N4CCCCC4)ncnc32)cc1	active: 1.26 µM
Cc1cc2cc(C#N)c(SCC(=O)Nc3nonc3C)nc2cc1C	inactive
C=CCn1c2ccccc2c(=O)c2cc(C#CC3(O)CCCCC3)ccc21	inconclusive: 4.47 µM [inhibitor, partial curve, poor fit]
C[C@H](O)[C@@H]1C(=O)N2CCc3ccc(-c4cccc(F)c4)cc3[C@@H]2C[C@@H]1N(C)S(=O)(=O)c1ccccc1	inconclusive: 12.6 µM [inhibitor, single point]
O=C(Nc1cccc(-c2cccc(F)c2)c1)C1CCN(C2CCOCC2)CC1	inconclusive: 7.08 µM [inhibitor, partial curve, poor fit]
C[C@]12c3[nH]c4cc(-c5ccco5)ccc4c3CCN1C(=O)[C@@H](CC(=O)NCC13CC4CC(CC(C4)C1)C3)C[C@@H]2C(=O)N1CCOCC1	inconclusive: 28.2 µM [inhibitor, single point]
Oc1ccccc1N=Nc1ccccc1O	inconclusive: 10 µM [inhibitor, partial curve, poor fit]
COC(=O)Nc1nc2ccc(Sc3ccccc3)cc2[nH]1	inconclusive: 0.02 µM [inhibitor, full curve, poor fit]
COCCn1c(=O)[nH]c2cc(C(=O)NCCN3CCN(c4ccccc4F)CC3)ccc2c1=O	inactive
CC1CCCCC1NC(=O)c1c(O)nc2ccccn2c1=O (stereo unspecified)	inactive
C/C(=N/NC(=O)c1ccccn1)c1c[nH]c2ccccc12	inconclusive: 5.62 µM [inhibitor, partial curve, poor fit]
O=C(Nc1ccncc1)c1ccc2c(c1)OCCO2	inactive
C[C@]12C(=O)N(c3ccc(F)cc3)C(=O)N1[C@H]1c3ccccc3OC[C@@H]1[C@H]2c1ccccc1	inactive
CC(=O)/C=C/c1ccccc1O	inconclusive: 5.01 µM [inhibitor, partial curve, poor fit]
O=C(Nc1cccc(NC(=O)c2ccccc2[N+](=O)[O-])c1)c1ccccc1Cl	inconclusive: 7.08 µM [inhibitor, partial curve, poor fit]
Cc1nn(CC(=O)N2CCC(C)CC2)c(=O)c2cccn12	inconclusive: 0.0089 µM [inhibitor, full curve, poor fit]
COc1ccc(C2/C=C\CN(C(=O)C3CC3)[C@H](Cc3ccccc3)C(=O)N2Cc2ccc(F)cc2)cc1 (stereo partly specified)	inconclusive: 22.4 µM [inhibitor, single point]
CN(C)c1nc(OCCNC(=O)Nc2ccccc2)nc(N2CCOCC2)n1	inconclusive: 31.6 µM [inhibitor, single point]

Compound	Potency
Brc1ccc2c(c1)CN1CCCC1=N2	inconclusive: 1.26 µM [inhibitor, full curve, poor fit]
O=C1N/C(=N/NC(=O)c2cccc3ccccc23)S/C1=C\c1ccccc1OCc1ccccc1	inactive
CCc1nc(N)nc(N)c1-c1ccc(Cl)cc1	inconclusive: 0.708 µM [inhibitor, full curve, poor fit]
O=C(NN=C1CCCC1)c1n[nH]c2c1CCCC2	inconclusive: 8.91 µM [inhibitor, single point]
Fc1ccc(-c2csc3ncnc(Cl)c23)cc1	inactive
CCC(C)N=C1Sc2nc3ccc(C)cc3cc2CN1CCOC (stereo unspecified)	inactive
COc1ccc(CCNC(=O)C2CCN(Cc3nc(-c4cccc(Cl)c4)oc3C)CC2)cc1OC	inactive
Cc1nnnn1/C(=C\c1ccccc1)C(=O)OCC(=O)NC1CCCCC1	active: 7.94 µM
NC(=O)CN1CCN(CCN2C(=O)c3cccc4cccc(c34)C2=O)CC1	inconclusive: 12.6 µM [inhibitor, single point]
O=C(c1ccc(N2CCOCC2)c([N+](=O)[O-])c1)N1CCN(c2ccccc2)CC1	inactive
C/C(=N\NC(=O)CN1CCCCC1)c1ccccc1O	inactive
O=C1/C(=C\c2ccccc2)CCc2c1[nH]c1ccccc21	inactive
CC(=O)C[C@H](O)CC(=O)[C@H]1OC(=O)CCCCCCCc2ccccc21	inactive
O=C(C[C@H]1C[C@H](C(=O)N2CCCCC2)[C@@]2(CCc3ccccc3)c3[nH]c4ccc(Cl)cc4c3CCN2C1=O)NCc1ccco1	inconclusive: 10 µM [inhibitor, partial curve]
COc1cc2c(-c3ccc4cc[nH]c4c3)c(-c3ccsc3)oc(=O)c2cc1OC	inactive
CC(=O)Oc1cc(O)c2c(=O)c(OC(C)=O)c(-c3ccc(OC(C)=O)c(OC(C)=O)c3)oc2c1	active: 10 µM
Cc1ccc(NC(=O)CSc2nnc(CNC(=O)c3ccco3)n2C)cc1	inconclusive: 0.891 µM [inhibitor, partial curve, poor fit]
O=S(=O)(Cc1ccccc1)Nc1ccccc1	inconclusive: 0.0035 µM [inhibitor, full curve, poor fit]
CCO[C@@H]1OC(C(=O)Nc2ccccc2)=C[C@H](c2csc3ccccc23)[C@H]1CCCO	inconclusive: 12.6 µM [inhibitor, single point]
O=C(Nc1ccc2c(c1)C(=O)NC2=O)c1cc(Cl)ccc1Cl	inactive
Cc1nc(SCC(=O)Nc2ccc(F)cc2)c(C#N)c(C)c1CC(=O)c1ccc(Br)cc1	inactive
COc1ccc(OC)c(NC(=O)c2ccccc2N(C)S(=O)(=O)c2ccc(C)cc2)c1	inconclusive: 1 µM [inhibitor, partial curve, poor fit]
Cc1cccc2sc(NC(=O)C3CSC4(C)CCC(=O)N34)nc12 (stereo unspecified)	inconclusive: 10 µM [inhibitor, partial curve, poor fit]

A portion from further up, as a working copy:
Compound	Potency
Fc1ccc(-c2csc3ncnc(Cl)c23)cc1	inactive
CCC(C)N=C1Sc2nc3ccc(C)cc3cc2CN1CCOC (stereo unspecified)	inactive
